Reference: the supplement of paper PMC8728848
The other results are listed elsewhere or left out.

Tests used:
Experiment in all cases: glycan array binding signal (z-score within array); higher = stronger binding
Conditions in all cases: glycan notation: IUPAC condensed, linker removed
GalNAc(b1-6)GalNAc = molecular target: GalNAc(b1-6)GalNAc
Method in brief: (§1)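 From the Consortium for Functional Glycomics database, 3228 arrays were curated, keeping only those whose protein sequence was available. Binding is given as a within-array Z-score averaged across arrays sharing a protein sequence and across linkers. Negative Z-scores can be read as non-binding.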

Glc(a1-4)Glc = molecular target: Glc(a1-4)Glc
Method in brief: as §1

[1] = molecular target: Glc(a1-4)Glc(a1-4)Glc(a1-4)Glc
Method in brief: as §1

Glc(a1-6)Glc(a1-6)Glc = molecular target: Glc(a1-6)Glc(a1-6)Glc
Method in brief: as §1

[2] = molecular target: Glc(a1-6)Glc(a1-6)Glc(a1-6)Glc
Method in brief: as §1

Glc(b1-4)Glc = molecular target: Glc(b1-4)Glc
Method in brief: as §1

Glc(b1-6)Glc = molecular target: Glc(b1-6)Glc
Method in brief: as §1

GlcA(b1-3)Gal = molecular target: GlcA(b1-3)Gal
Method in brief: as §1

GlcA(b1-3)GlcNAc = molecular target: GlcA(b1-3)GlcNAc
Method in brief: as §1

GlcA(b1-6)Gal = molecular target: GlcA(b1-6)Gal
Method in brief: as §1

[3] = molecular target: GlcNAc(a1-3)Gal(b1-4)GlcNAc
Method in brief: as §1

[4] = molecular target: GlcNAc(a1-4)Gal(b1-3)GlcNAc
Method in brief: as §1

[5] = molecular target: GlcNAc(a1-4)Gal(b1-4)GalNAc
Method in brief: as §1

[6] = molecular target: GlcNAc(a1-4)Gal(b1-4)GlcNAc
Method in brief: as §1

[7] = molecular target: GlcNAc(a1-4)Gal(b1-4)GlcNAc(b1-3)Gal(b1-4)Glc
Method in brief: as §1

[8] = molecular target: GlcNAc(a1-4)Gal(b1-4)GlcNAc(b1-3)Gal(b1-4)GlcNAc
Method in brief: as §1

[9] = molecular target: GlcNAc(a1-4)Gal(b1-4)GlcNAc(b1-3)Gal(b1-4)GlcNAc(b1-3)Gal(b1-4)GlcNAc
Method in brief: as §1

[10] = molecular target: GlcNAc(a1-4)Gal(b1-4)GlcNAc(b1-3)Gal(b1-4)[Fuc(a1-3)]GlcNAc(b1-3)Gal(b1-4)[Fuc(a1-3)]GlcNAc
Method in brief: as §1

[11] = molecular target: GlcNAc(a1-6)Gal(b1-4)GlcNAc
Method in brief: as §1

[12] = molecular target: GlcNAc(b1-2)Gal(b1-3)GalNAc
Method in brief: as §1

[13] = molecular target: GlcNAc(b1-2)Man(a1-3)[GlcNAc(b1-2)Man(a1-6)]Man(b1-4)GlcNAc(b1-4)GlcNAc
Method in brief: as §1

[14] = molecular target: GlcNAc(b1-2)Man(a1-3)[GlcNAc(b1-2)Man(a1-6)]Man(b1-4)GlcNAc(b1-4)[Fuc(a1-6)]GlcNAc
Method in brief: as §1

[15] = molecular target: GlcNAc(b1-2)Man(a1-3)[GlcNAc(b1-4)][GlcNAc(b1-2)Man(a1-6)]Man(b1-4)GlcNAc(b1-4)GlcNAc
Method in brief: as §1

[16] = molecular target: GlcNAc(b1-2)[GlcNAc(b1-4)]Man(a1-3)[GlcNAc(b1-2)Man(a1-6)]Man(b1-4)GlcNAc(b1-4)GlcNAc
Method in brief: as §1

[17] = molecular target: GlcNAc(b1-2)[GlcNAc(b1-4)]Man(a1-3)[GlcNAc(b1-4)][GlcNAc(b1-2)Man(a1-6)]Man(b1-4)GlcNAc(b1-4)GlcNAc
Method in brief: as §1

[18] = molecular target: GlcNAc(b1-2)[GlcNAc(b1-4)]Man(a1-3)[GlcNAc(b1-4)][GlcNAc(b1-2)[GlcNAc(b1-6)]Man(a1-6)]Man(b1-4)GlcNAc(b1-4)GlcNAc
Method in brief: as §1

[19] = molecular target: GlcNAc(b1-2)[GlcNAc(b1-6)]Man(a1-6)[GlcNAc(b1-2)Man(a1-3)]Man(b1-4)GlcNAc(b1-4)GlcNAc
Method in brief: as §1

[20] = molecular target: GlcNAc(b1-2)[GlcNAc(b1-6)]Man(a1-6)[GlcNAc(b1-2)Man(a1-3)][GlcNAc(b1-4)]Man(b1-4)GlcNAc(b1-4)GlcNAc
Method in brief: as §1

GlcNAc(b1-3)Gal = molecular target: GlcNAc(b1-3)Gal
Method in brief: as §1

[21] = molecular target: GlcNAc(b1-3)Gal(b1-3)GalNAc
Method in brief: as §1

GlcNAc(b1-3)Gal(b1-4)Glc = molecular target: GlcNAc(b1-3)Gal(b1-4)Glc
Method in brief: as §1

[22] = molecular target: GlcNAc(b1-3)Gal(b1-4)GlcNAc
Method in brief: as §1

[23] = molecular target: GlcNAc(b1-3)Gal(b1-4)GlcNAc(b1-3)Gal(b1-4)GlcNAc
Method in brief: as §1

GlcNAc(b1-3)GalNAc = molecular target: GlcNAc(b1-3)GalNAc
Method in brief: as §1

GlcNAc(b1-3)Man = molecular target: GlcNAc(b1-3)Man
Method in brief: as §1

[24] = molecular target: GlcNAc(b1-3)[GlcNAc(b1-4)][GlcNAc(b1-6)]GlcNAc
Method in brief: as §1

[25] = molecular target: GlcNAc(b1-3)[GlcNAc(b1-6)]Gal(b1-4)GlcNAc
Method in brief: as §1

[26] = molecular target: GlcNAc(b1-3)[GlcNAc(b1-6)]GalNAc
Method in brief: as §1

[27] = molecular target: GlcNAc(b1-4)Gal(b1-4)GlcNAc
Method in brief: as §1

GlcNAc(b1-4)GlcNAc = molecular target: GlcNAc(b1-4)GlcNAc
Method in brief: as §1

[28] = molecular target: GlcNAc(b1-4)GlcNAc(b1-4)GlcNAc
Method in brief: as §1

[29] = molecular target: GlcNAc(b1-4)GlcNAc(b1-4)GlcNAc(b1-4)GlcNAc(b1-4)GlcNAc
Method in brief: as §1

[30] = molecular target: GlcNAc(b1-4)GlcNAc(b1-4)GlcNAc(b1-4)GlcNAc(b1-4)GlcNAc(b1-4)GlcNAc
Method in brief: as §1

[31] = molecular target: GlcNAc(b1-4)[GlcNAc(b1-6)]GalNAc
Method in brief: as §1

[32] = molecular target: GlcNAc(b1-6)Gal(b1-4)GlcNAc
Method in brief: as §1

B1: Protectin (Homo sapiens), P13987 (protein)
chain: MGIQGGSVLFGLLLVLAVFCHSGHSLQCYNCPNPTADCKTAVNCSSDFDACLITKAGLQVYNKCWKFEHCNFNDVTTRLRENELTYYCCKKDLCNFNEQLENGGTSLSEKTVLLLVTPFLAAAWSLHP
GalNAc(b1-6)GalNAc
  glycan array binding signal (z-score): -0.397
Glc(a1-4)Glc
  glycan array binding signal (z-score): -0.2
[1]
  glycan array binding signal (z-score): 0.17
Glc(a1-6)Glc(a1-6)Glc
  glycan array binding signal (z-score): -0.12
[2]
  glycan array binding signal (z-score): -2.07
Glc(b1-4)Glc
  glycan array binding signal (z-score): -0.516
Glc(b1-6)Glc
  glycan array binding signal (z-score): -0.906
GlcA(b1-3)Gal
  glycan array binding signal (z-score): -0.258
GlcA(b1-3)GlcNAc
  glycan array binding signal (z-score): 0.253
GlcA(b1-6)Gal
  glycan array binding signal (z-score): -0.432
[3]
  glycan array binding signal (z-score): -0.315
[4]
  glycan array binding signal (z-score): 0.293
[5]
  glycan array binding signal (z-score): -0.029
[6]
  glycan array binding signal (z-score): -1.51
[7]
  glycan array binding signal (z-score): -1.29
[8]
  glycan array binding signal (z-score): 0.746
[9]
  glycan array binding signal (z-score): 0.914
[10]
  glycan array binding signal (z-score): 6.43
[11]
  glycan array binding signal (z-score): -0.166
[12]
  glycan array binding signal (z-score): -0.869
[13]
  glycan array binding signal (z-score): 0.255
[14]
  glycan array binding signal (z-score): 2.37
[15]
  glycan array binding signal (z-score): 0.043
[16]
  glycan array binding signal (z-score): -0.787
[17]
  glycan array binding signal (z-score): 1.04
[18]
  glycan array binding signal (z-score): 0.781
[19]
  glycan array binding signal (z-score): -0.347
[20]
  glycan array binding signal (z-score): -0.097
GlcNAc(b1-3)Gal
  glycan array binding signal (z-score): -0.385
[21]
  glycan array binding signal (z-score): 0.142
GlcNAc(b1-3)Gal(b1-4)Glc
  glycan array binding signal (z-score): 0.573
[22]
  glycan array binding signal (z-score): -1.56
[23]
  glycan array binding signal (z-score): 0.315
GlcNAc(b1-3)GalNAc
  glycan array binding signal (z-score): -0.942
GlcNAc(b1-3)Man
  glycan array binding signal (z-score): -0.793
[24]
  glycan array binding signal (z-score): -0.105
[25]
  glycan array binding signal (z-score): -0.188
[26]
  glycan array binding signal (z-score): -0.61
[27]
  glycan array binding signal (z-score): -0.995
GlcNAc(b1-4)GlcNAc
  glycan array binding signal (z-score): -0.159
[28]
  glycan array binding signal (z-score): 0.162
[29]
  glycan array binding signal (z-score): 0.181
[30]
  glycan array binding signal (z-score): -1.56
[31]
  glycan array binding signal (z-score): -0.104
[32]
  glycan array binding signal (z-score): -0.31
